According to the supplement of paper PMC10849652:
The list shows a part of the results.

Amino acid sequences for entries named in this document (tags omitted). A change or cut given only in a name is not applied to a line headed by its entry.
UniProt Q15283: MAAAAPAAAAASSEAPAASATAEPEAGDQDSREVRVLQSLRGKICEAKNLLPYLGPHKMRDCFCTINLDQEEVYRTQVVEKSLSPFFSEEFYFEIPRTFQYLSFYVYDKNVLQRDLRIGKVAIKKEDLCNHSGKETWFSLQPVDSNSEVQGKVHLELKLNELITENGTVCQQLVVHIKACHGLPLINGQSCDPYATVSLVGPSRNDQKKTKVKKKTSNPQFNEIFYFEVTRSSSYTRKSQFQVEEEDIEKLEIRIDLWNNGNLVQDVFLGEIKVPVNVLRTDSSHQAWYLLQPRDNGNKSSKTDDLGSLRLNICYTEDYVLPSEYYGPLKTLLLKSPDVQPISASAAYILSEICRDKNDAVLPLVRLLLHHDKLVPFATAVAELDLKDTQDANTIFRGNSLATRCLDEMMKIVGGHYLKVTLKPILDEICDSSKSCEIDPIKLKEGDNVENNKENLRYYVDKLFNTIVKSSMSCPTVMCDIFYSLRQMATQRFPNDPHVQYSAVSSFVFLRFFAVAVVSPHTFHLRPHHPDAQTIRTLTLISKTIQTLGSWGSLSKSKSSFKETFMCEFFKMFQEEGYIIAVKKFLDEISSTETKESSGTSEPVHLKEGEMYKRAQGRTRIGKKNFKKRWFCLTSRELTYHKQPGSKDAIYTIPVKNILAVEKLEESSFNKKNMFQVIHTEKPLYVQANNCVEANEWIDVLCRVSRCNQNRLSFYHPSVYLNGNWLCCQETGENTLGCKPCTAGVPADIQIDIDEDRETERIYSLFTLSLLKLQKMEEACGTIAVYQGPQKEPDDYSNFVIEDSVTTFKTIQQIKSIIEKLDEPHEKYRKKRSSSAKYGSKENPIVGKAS
UniProt P20936: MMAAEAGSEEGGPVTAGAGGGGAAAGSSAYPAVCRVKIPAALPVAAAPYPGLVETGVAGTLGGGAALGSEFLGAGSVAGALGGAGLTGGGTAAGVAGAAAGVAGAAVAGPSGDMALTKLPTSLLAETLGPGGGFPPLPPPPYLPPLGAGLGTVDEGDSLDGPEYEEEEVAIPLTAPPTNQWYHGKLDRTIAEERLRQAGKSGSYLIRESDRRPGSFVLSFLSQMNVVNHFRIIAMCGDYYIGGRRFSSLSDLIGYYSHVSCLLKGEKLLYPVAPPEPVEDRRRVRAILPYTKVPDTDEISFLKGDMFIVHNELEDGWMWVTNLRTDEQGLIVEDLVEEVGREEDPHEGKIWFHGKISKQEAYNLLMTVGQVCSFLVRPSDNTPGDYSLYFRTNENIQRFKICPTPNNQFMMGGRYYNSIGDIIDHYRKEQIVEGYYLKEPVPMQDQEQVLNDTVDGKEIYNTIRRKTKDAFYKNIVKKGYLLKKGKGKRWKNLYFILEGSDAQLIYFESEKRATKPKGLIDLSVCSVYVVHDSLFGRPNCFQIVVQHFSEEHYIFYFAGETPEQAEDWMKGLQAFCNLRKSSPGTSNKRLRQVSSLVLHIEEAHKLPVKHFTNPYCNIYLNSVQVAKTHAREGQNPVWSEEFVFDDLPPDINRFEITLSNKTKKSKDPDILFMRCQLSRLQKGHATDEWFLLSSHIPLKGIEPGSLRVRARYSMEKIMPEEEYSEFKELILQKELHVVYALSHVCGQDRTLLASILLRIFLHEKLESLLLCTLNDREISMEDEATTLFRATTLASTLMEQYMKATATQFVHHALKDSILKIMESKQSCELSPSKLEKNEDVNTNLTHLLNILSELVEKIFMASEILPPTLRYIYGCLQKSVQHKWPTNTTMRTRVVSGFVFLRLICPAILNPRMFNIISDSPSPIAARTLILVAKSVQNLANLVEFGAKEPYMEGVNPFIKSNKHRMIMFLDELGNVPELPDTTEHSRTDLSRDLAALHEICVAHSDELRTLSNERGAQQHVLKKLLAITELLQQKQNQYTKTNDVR
UniProt Q8IZV5: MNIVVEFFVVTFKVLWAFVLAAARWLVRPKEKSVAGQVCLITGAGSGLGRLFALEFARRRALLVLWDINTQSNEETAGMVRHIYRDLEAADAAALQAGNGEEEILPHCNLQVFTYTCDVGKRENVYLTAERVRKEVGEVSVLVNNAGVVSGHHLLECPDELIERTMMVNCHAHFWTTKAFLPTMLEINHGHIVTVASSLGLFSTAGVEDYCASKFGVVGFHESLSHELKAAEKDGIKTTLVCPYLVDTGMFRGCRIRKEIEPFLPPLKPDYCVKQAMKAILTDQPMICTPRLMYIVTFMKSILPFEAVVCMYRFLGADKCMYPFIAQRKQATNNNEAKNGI
UniProt Q9P2R6: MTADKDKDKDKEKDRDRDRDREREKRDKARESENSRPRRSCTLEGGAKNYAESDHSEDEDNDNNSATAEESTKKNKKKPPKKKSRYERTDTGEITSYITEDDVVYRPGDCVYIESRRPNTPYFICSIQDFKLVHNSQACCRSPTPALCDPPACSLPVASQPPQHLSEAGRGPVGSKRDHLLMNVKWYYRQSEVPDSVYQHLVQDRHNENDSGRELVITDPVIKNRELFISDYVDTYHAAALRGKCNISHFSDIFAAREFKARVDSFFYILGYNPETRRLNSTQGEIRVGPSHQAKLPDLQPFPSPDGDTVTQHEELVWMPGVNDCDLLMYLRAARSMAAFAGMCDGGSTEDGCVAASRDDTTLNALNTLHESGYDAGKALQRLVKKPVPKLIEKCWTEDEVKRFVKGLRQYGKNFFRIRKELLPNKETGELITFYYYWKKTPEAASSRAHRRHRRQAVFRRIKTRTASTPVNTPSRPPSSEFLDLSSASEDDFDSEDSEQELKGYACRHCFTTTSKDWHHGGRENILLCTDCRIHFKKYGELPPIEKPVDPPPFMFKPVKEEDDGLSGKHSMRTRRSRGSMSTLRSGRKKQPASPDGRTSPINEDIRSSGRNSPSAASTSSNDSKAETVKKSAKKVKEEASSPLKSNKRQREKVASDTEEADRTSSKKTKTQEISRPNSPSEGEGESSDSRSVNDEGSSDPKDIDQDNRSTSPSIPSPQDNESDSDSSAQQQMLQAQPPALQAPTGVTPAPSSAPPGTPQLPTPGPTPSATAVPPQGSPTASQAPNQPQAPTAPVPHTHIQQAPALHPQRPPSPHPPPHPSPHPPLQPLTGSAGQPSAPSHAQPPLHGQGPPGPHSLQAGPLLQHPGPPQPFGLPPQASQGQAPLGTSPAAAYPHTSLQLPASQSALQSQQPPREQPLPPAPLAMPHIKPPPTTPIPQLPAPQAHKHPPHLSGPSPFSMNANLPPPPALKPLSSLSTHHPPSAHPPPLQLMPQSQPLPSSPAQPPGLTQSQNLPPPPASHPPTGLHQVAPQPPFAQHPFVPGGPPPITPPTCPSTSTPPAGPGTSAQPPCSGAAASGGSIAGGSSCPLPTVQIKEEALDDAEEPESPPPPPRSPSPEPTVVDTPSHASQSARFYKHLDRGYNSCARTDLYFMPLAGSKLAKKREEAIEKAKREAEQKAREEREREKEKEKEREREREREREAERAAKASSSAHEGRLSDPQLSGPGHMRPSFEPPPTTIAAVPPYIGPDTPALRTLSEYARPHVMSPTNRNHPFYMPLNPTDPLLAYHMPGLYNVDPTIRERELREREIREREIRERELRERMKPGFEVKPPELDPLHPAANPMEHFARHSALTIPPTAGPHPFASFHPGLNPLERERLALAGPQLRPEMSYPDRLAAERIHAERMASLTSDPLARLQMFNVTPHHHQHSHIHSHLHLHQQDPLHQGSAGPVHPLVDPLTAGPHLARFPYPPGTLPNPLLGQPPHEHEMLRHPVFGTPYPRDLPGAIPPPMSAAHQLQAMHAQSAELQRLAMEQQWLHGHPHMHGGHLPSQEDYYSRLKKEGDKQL
UniProt P53805: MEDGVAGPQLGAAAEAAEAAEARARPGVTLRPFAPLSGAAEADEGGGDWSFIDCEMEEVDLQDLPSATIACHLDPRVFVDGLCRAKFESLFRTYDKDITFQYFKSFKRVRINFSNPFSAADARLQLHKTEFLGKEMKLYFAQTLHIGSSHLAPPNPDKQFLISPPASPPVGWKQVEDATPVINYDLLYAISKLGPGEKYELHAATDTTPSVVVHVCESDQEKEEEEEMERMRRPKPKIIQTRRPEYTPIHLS
UniProt Q5T160: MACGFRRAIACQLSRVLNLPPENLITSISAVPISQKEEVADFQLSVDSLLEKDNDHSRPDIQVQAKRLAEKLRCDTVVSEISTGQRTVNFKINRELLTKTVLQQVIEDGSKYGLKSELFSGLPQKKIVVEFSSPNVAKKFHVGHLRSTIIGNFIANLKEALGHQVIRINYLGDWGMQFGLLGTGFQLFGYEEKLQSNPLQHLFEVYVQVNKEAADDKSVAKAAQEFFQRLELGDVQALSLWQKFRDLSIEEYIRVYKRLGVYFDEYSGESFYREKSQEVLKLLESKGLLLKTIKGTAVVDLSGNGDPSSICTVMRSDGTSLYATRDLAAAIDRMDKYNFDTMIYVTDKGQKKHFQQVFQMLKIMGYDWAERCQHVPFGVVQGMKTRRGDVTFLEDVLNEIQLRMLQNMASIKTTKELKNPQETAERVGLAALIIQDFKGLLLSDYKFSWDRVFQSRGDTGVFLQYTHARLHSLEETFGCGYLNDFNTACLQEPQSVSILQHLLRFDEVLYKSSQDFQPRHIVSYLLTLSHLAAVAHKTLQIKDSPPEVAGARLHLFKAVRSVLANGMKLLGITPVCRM
UniProt Q09028, whole entry, looked up: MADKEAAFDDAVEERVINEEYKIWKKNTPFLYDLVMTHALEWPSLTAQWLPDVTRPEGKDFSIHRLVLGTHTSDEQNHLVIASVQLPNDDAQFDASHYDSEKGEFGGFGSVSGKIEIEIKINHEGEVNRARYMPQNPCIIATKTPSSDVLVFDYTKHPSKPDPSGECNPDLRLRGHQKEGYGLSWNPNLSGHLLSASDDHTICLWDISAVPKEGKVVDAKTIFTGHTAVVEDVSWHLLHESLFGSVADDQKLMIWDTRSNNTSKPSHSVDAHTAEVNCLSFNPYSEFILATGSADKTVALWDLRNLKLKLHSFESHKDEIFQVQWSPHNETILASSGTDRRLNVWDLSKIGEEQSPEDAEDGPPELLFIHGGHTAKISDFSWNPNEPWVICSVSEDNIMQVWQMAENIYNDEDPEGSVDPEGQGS
UniProt Q14498: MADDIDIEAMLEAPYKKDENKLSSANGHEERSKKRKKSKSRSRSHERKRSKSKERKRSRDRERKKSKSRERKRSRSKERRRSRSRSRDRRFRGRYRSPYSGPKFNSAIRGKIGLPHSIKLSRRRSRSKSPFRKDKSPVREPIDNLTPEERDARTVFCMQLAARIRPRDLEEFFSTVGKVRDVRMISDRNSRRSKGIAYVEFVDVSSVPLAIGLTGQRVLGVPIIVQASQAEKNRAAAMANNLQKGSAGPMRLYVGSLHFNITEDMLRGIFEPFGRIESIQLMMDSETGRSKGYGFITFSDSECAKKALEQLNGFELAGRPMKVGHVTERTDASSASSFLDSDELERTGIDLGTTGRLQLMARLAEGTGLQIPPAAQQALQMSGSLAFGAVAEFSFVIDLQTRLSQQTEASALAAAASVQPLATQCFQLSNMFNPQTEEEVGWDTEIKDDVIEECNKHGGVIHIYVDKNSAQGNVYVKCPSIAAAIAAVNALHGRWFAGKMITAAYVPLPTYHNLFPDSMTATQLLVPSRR
UniProt Q96AA3: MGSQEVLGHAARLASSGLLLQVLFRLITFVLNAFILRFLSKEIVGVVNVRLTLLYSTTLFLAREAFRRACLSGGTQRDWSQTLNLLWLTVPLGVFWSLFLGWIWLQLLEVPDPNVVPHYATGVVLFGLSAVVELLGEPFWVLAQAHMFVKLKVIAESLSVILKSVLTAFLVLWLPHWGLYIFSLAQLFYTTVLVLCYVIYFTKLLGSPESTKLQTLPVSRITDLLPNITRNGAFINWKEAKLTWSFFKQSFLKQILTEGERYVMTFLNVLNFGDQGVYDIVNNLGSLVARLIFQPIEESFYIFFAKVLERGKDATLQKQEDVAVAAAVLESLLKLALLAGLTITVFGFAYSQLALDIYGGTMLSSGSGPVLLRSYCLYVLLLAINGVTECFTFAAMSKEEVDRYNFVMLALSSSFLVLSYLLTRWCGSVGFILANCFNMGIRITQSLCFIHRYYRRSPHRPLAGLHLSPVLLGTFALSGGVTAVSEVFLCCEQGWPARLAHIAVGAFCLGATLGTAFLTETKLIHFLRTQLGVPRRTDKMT
UniProt P51606: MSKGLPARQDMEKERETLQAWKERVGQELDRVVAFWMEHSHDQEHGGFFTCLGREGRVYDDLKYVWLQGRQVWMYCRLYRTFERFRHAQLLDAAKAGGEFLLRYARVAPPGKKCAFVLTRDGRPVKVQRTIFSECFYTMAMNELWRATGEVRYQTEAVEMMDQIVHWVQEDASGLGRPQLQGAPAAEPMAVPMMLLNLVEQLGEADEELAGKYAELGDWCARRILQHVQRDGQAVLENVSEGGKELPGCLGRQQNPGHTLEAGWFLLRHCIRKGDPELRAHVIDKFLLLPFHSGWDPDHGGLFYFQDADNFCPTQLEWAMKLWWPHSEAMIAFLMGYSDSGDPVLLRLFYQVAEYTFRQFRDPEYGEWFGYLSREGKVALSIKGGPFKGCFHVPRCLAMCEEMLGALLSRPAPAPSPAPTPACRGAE

These targets were tested with CS(=O)(=O)N1CCN(Cc2cc3nc(-c4cccc5[nH]ncc45)nc(N4CCOCC4)c3s2)CC1 [pictilisib] (assay: log2 fold change, soluble protein after heating vs DMSO (PISA); higher = thermal stabilisation; K562 lysate, 10 uM; active = over 0.2 and 3.5 SD of the protein, either way, in both replicates (recomputed)).
Outline: (§1)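 Values give the log-two fold change in thermal stability against solvent controls, from duplicates. Crude K562 extract at 1 mg/mL protein, made by dounce homogenisation in PBS pH 7.4 with 1 mM MgCl2, was treated with 10 μM compound for 30 min. After 3 min heating across 48°C-58°C, aliquots were pooled, adjusted to 0.5% NP-40 at 4°C and centrifuged at 21,000xg for 90 min. The supernatant was measured by TMTpro 16plex LC-MS/MS with channel sums equalised.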

Target | log2 fold change
RBM3 (UniProt P98179) | inactive: -0.026
RCN3 (UniProt Q96D15) | inactive: -0.026
RASA2 (UniProt Q15283) | inactive: -0.089
RFESD isoform 2 (UniProt Q8TAC1) | inactive: 0.029
RBM42 (UniProt Q9BTD8) | inactive: 0.049
RASA1 (UniProt P20936) | inactive: -0.057
RBMX (UniProt P38159) | inactive: 0.012
RCOR3 isoform 3 (UniProt Q9P2K3) | inactive: 0.023
REEP6 (UniProt Q96HR9) | inactive: 0.047
RCC1L (UniProt Q96I51) | inactive: -0.058
RDH10 (UniProt Q8IZV5) | inactive: -0.035
RERE (UniProt Q9P2R6) | inactive: -0.069
RCAN1 (UniProt P53805) | inactive: -0.048
RARS2 (UniProt Q5T160) | inactive: 0.009
RGS10 (UniProt O43665) | inactive: 0.002
RFX5 (UniProt P48382) | inactive: 0.038

The targets below were run with C[C@@H](Oc1cc(-c2cnn(C3CCNCC3)c2)cnc1N)c1c(Cl)ccc(F)c1Cl [crizotinib] in the same assay as above.
Outline: as §1

Target | log2 fold change
RBL1 (UniProt P28749) | inactive: -0.06
RBBP4 (UniProt Q09028) | inactive: -0.003
RCOR1 (UniProt Q9UKL0) | inactive: 0.048
RBM33 (UniProt Q96EV2) | inactive: -0.019
RFX1 (UniProt P22670) | inactive: -0.023
RBM28 (UniProt Q9NW13) | inactive: -0.05
RAVER1 (UniProt E9PAU2) | inactive: 0.01
RCSD1 (UniProt Q6JBY9) | inactive: -0.005
RBM39 (UniProt Q14498) | inactive: -0.017
RFT1 (UniProt Q96AA3) | inactive: -0.003
RENBP (UniProt P51606) | inactive: 0.018
RECQL5 (UniProt O94762) | inactive: 0.049
RELN (UniProt P78509) | inactive: -0.022
RFXAP (UniProt O00287) | inactive: 0.036
RASA3 (UniProt Q14644) | inactive: -0.061
REPS1 (UniProt Q96D71) | inactive: -0.022

Target | log2 fold change
RBM3 (UniProt P98179) | inactive: 0.186
RCN3 (UniProt Q96D15) | inactive: 0.004
RASA2 (UniProt Q15283) | inactive: -0.014
RFESD isoform 2 (UniProt Q8TAC1) | inactive: 0.052
RBM42 (UniProt Q9BTD8) | inactive: 0.01
RASA1 (UniProt P20936) | inactive: -0.004
RBMX (UniProt P38159) | inactive: 0.022
RCOR3 isoform 3 (UniProt Q9P2K3) | inactive: 0.011
REEP6 (UniProt Q96HR9) | inactive: -0.04
RCC1L (UniProt Q96I51) | inactive: 0.035
RDH10 (UniProt Q8IZV5) | inactive: 0.062
RERE (UniProt Q9P2R6) | inactive: 0.061
RCAN1 (UniProt P53805) | inactive: -0.127
RARS2 (UniProt Q5T160) | inactive: -0.072
RGS10 (UniProt O43665) | inactive: 0.05
RFX5 (UniProt P48382) | inactive: 0
